Experimental data published in patent publication EP0939649B1, “ADDITIVE, IN PARTICULAR IN THE FORM OF AN EMULSION CONTAINING A TRIVALENT METAL CATION AND VACCINE COMPOSITION CONTAINING SAME” (priority 1996, dated 1998).
For at least one compound, name, drawing or mass did not settle the structure.

Assay: Local reactions (lesions and granulomas) at the injection site after subcutaneous injection in mice
Assay type: in vivo
Settings: souris 4; 8 days after s.c. injection, 1000 µl, 10 µg BSA
Experimental: On a injecté à différents lots comprenant chacun 5 souris, une composition thérapeutique d'un volume de 1000 µl, comprenant 10 µg d'antigène (BSA), par voie sous-cutanée. On a évalué les réactions locales (lésions et granulomes) 8 jours après injection.

Structure (SMILES): CC(=O)[O-].[Al+3].[OH-].[OH-] [C2H5AlO4 (forme soluble), acétate d'Aluminium soluble (C2H5AlO4)]
- réactions locales (lésions et granulomes): +
